# Measurements reported in PubChem BioAssay AID493014 (National Center for Advancing Translational Sciences (NCATS), 2011).
# The other results are listed elsewhere or left out. These are further read-outs of the screen, such as a control signal, another cell line or another target. No call is given for them. Most of these compounds were active or inconclusive in the main read-out, so they are no random draw. Words in brackets tell the shape of the fitted curve; partial curves, single points and poor fits give uncertain potencies.
# Assay: qHTS Assay to Find Inhibitors of Chronic Active B-Cell Receptor Signaling
# Conditions: ABC-DLBCL IkBa-CBG/CBR reporter, luminescence ratio (green luciferase fused to IkBa over red control in TMD8 lymphoma cells), 4 h
# In short: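 Doxycycline induced both beetle luciferases in TMD8 lymphoma cells; IKK-driven degradation limits the IkappaBalpha-fused green signal, while red luminescence normalises for cell number and nonspecific effects. Compounds tested up to 46 uM, 4 hrs.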
# [1] = measured here: CBR red luminescence, cell number
# [2] = measured here: IkBa-CBG green luminescence
Structure (SMILES),AC50 [1],AC50 [2]
O=C(N/N=C/c1cn(Cc2ccccc2)c2ccccc12)c1cc(O)cc(O)c1,"12.6 µM [falling, partial curve]",–
S=c1[nH]c2cc(Cl)ccc2s1,"35.5 µM [rising, single point]",–
COc1ccc(C(NC(=O)c2ccco2)c2ccc(OC)c(OC)c2)cc1 (stereo not drawn),"7.31 µM [rising, single point]",–
O=C(CN1CCCC1)Nc1sc2c(c1C(=O)Nc1ccc(Br)cc1)CCC2,"2.24 µM [rising, full curve, poor fit]",–
O=C(NCCN1CCOCC1)c1cc(-c2ccccc2Cl)on1,"35.5 µM [rising, single point]",–
CCOC(=O)c1cn(CC)c2c(ccc3ccccc32)c1=O,"5.62 µM [rising, single point]",–
O=C(COc1ccc(Cl)cc1Cl)Nc1ccc(S(=O)(=O)NC2=NCCCCC2)cc1,"14.6 µM [falling, single point]",–
COc1cc(C=O)ccc1OCCOCCOc1ccccc1Cl,"5.01 µM [rising, single point]",–
COc1ccc(C(=O)Nc2ccc3ccccc3c2)cc1OC,"11.2 µM [falling, partial curve, poor fit]",–
COc1ccc(C)cc1-n1c(SCC(=O)NC2CC2)nc2ccccc2c1=O,"5.8 µM [falling, partial curve, poor fit]",–
Cc1ccc(S(=O)(=O)N(C)c2ccc(OC(=O)c3ccc(=O)[nH]c3)cc2)cc1,"35.5 µM [falling, single point]",–
Cc1ccnc(Nc2nc(-c3ccccc3)cs2)c1,"3.98 µM [falling, full curve]",–
COc1ccc(NC(=O)c2cccc(Oc3ccc([N+](=O)[O-])cc3Cl)c2)cc1,"18.4 µM [falling, partial curve]",–
Cc1c(C(=O)NN2CCOCC2)oc2c1ccc1ccccc12,"0.562 µM [rising, full curve, poor fit]",–
COc1ccccc1CC(=O)N1CCC(n2nccc2NC(=O)C2CCOC2)CC1 (stereo not drawn),"35.5 µM [rising, partial curve, poor fit]",–
Cc1cc(C(=O)NNC(=O)c2ccc(Cl)cc2)no1,"22.4 µM [falling, single point]",–
C=CCn1c(SCC(=O)c2cc(C)n(Cc3cccs3)c2C)nnc1-c1ccncc1,"6.51 µM [rising, single point]",–
COc1ccc(/C=N/NC(=O)c2ccc(C)nc2)cc1O,"10 µM [falling, partial curve, poor fit]",–
Nc1ccc(NC(=O)c2cccs2)cc1,"35.5 µM [falling, single point]",–
O=c1[nH]c2cc3c(cc2cc1CN(CCc1ccccc1)Cc1nnnn1C1CCCC1)OCCO3,"10 µM [falling, partial curve, poor fit]",–
O=C(Nc1ccc(C(=O)O)cc1)Nc1ccc(F)cc1F,"7.08 µM [falling, partial curve]",–
Clc1ccc(-c2cnc3n2CCC3)cc1,"0.355 µM [falling, full curve, poor fit]",–

Structure (SMILES),AC50 [1],AC50 [2]
Cc1ccccc1OCC(=O)Nc1sc2c(c1C#N)CC(C)(C)NC2(C)C,"12.6 µM [falling, partial curve, poor fit]",–
O=C(NCCc1c[nH]c2ccccc12)c1ccc2nc[nH]c2c1,"29.1 µM [falling, single point]",–
O=C(c1ccc(Br)o1)N1CCN(c2ncccn2)CC1,"23.1 µM [rising, single point]",–
O=C(Nc1ccncc1)c1cc2ccccc2cc1O,"4.11 µM [falling, full curve]",–
Cc1ccc(-c2nc(NCc3ccco3)n(C(=O)c3ccco3)n2)cc1,"2.82 µM [rising, partial curve, poor fit]",–
CCCCCCOC(=O)C[N+](C)(C)CCOC1CC2CCC1(C)C2(C)C (stereo not drawn),"14.6 µM [falling, partial curve]","32.6 µM [rising, partial curve, poor fit]"
CN(CC(=O)Nc1ccc(Cl)cc1)CC(=O)Nc1cccc2ccccc12,"32.6 µM [falling, single point]",–
CCOC(=O)c1ccc(N2CCN(C(=O)c3ccccc3)CC2)c(NC(=O)c2ccco2)c1,"22.4 µM [falling, single point]",–
O=C(Nc1nc(-c2cc(Cl)sc2Cl)cs1)c1ccccc1,"32.6 µM [falling, single point]",–
C/C(=N\OCc1cccc(C(=O)O)c1)c1ccc(Cl)cc1,"1.12 µM [falling, full curve, poor fit]",–
CCCCn1c(NCc2cccs2)nc2ccccc21,"35.5 µM [falling, single point]",–
COc1cccc(NC(=O)COC(=O)c2c3c(nc4ccccc24)CCC(C)C3)c1 (stereo not drawn),"12.6 µM [falling, partial curve, poor fit]",–
COc1ccc(-c2cccc(-c3cc(=O)oc4cc(OC)cc(OC)c34)c2)cc1,"1.16 µM [rising, full curve, poor fit]","1.64 µM [falling, full curve]"
CC(=O)Nc1cccc(C(=O)N/N=C/c2ccc(C)o2)c1,"5.62 µM [falling, full curve]",–
O=C(Cc1sc(-c2ccccc2)nc1-c1ccccc1)Nc1ccccc1,"7.31 µM [rising, partial curve]",–
CCNS(=O)(=O)c1ccc(NC(=O)Nc2cc(C)ccc2OC)cc1,"35.5 µM [falling, single point]",–
S=C(Nc1ccccc1)N1CCn2cccc2C1c1cccnc1 (stereo not drawn),"29.1 µM [falling, single point]",–
CCOc1cc(NC(=S)NCC2CCCO2)c(OCC)cc1NC(=O)c1ccccc1F (stereo not drawn),"35.5 µM [falling, single point]",–
Cc1cccc(Nc2nc(-c3ccccc3)c(C(=O)Nc3cccnc3)s2)c1,"14.6 µM [falling, partial curve, poor fit]",–
Cc1ccccc1Oc1cc(NC(=O)Cn2cnc([N+](=O)[O-])c2)cc([N+](=O)[O-])c1,"15.8 µM [falling, single point]",–
CCCCc1ccc(NC(=O)CC(C)C)cc1,"35.5 µM [falling, single point]",–
O=C(Cn1ncc(Cl)c(Cl)c1=O)NC1CCCCC1,"11.6 µM [falling, partial curve]",–

# Whole records from above.
# `O=C(Nc1ccncc1)c1cc2ccccc2cc1O` in the list: AC50 [1]: 4.11 µM [falling, full curve]
# `COc1cccc(NC(=O)COC(=O)c2c3c(nc4ccccc24)CCC(C)C3)c1` (stereo not drawn) in the list: AC50 [1]: 12.6 µM [falling, partial curve, poor fit]

# Further records follow.

Structure (SMILES),AC50 [1],AC50 [2]
CCOC(=O)c1ccccc1NC(=O)COC(=O)CCC(=O)N1CCOCC1,"2.51 µM [falling, full curve]",–
CCOC(=O)c1sc(NC(=O)CSc2n[nH]c(CC(C)C)n2)nc1C,"20.6 µM [falling, single point]",–
CCOc1ccc(N2CC(C(=O)Nc3cccc(S(=O)(=O)NC4=NCCC4)c3)CC2=O)cc1 (stereo not drawn),"0.794 µM [rising, full curve, poor fit]",–
COc1ccccc1C(=O)N1CCN(Cc2ccc3c(c2)OCO3)CC1,"16.4 µM [falling, single point]",–
Cc1cccc(N2CCN(C(=O)Cn3cccc3)CC2)c1C,"2.06 µM [rising, partial curve, poor fit]",–
Cc1ccc(N2C(=O)C3C4C=CC(CNC(=S)Nc5ccc(Cl)cc5)(O4)C3C2=O)cc1 (stereo not drawn),"18.4 µM [falling, single point]",–
CCOC(=O)NC(=O)/C(C=Nc1ccc(Cl)cc1)=C(\C)O,"7.94 µM [rising, partial curve, poor fit]",–
CCOC(=O)c1c(C)[nH]c(C)c1C(=O)COC(=O)c1c(OC)cccc1OC,"6.51 µM [rising, single point]",–
CC(=O)N=c1cccc(NC(C)=O)n1O,"32.6 µM [falling, single point]",–
O=C1CC(C(=O)Nc2ccc(F)c(Cl)c2)N=C(N2CCCCC2)N1 (stereo not drawn),"6.51 µM [falling, single point]",–
CCOc1ccc(CC(=O)N/N=C/c2sccc2C)cc1,"4.47 µM [rising, single point]",–
CCNC(=S)N(CCc1c(C)[nH]c2ccc(C)cc12)Cc1cccnc1,"35.5 µM [falling, single point]",–
Cc1ccc(NC(=S)NC2CCSc3ccccc32)cc1C (stereo not drawn),"5.62 µM [falling, partial curve]",–
CCOC(=O)c1ccc(NC(=O)C2CCN(C(=O)c3ccc(OC)c(OC)c3)CC2)cc1,"0.146 µM [rising, full curve]",–
CC1(C)CC(=O)C(N=Nc2ccc(Br)cc2)=C(O)C1,"35.5 µM [rising, single point]",–
Cc1ccc(OC(C)c2nnc(N)s2)cc1Cl (stereo not drawn),"20.6 µM [falling, partial curve, poor fit]",–
C=CCOc1ccc(/C=C/C(=O)Nc2ccc(C(=O)NC)cc2)cc1,"18.4 µM [rising, partial curve, poor fit]",–
CCCCN(C(=O)CSc1nncn1-c1ccccc1OC)c1c(N)n(Cc2ccccc2)c(=O)[nH]c1=O,"35.5 µM [falling, single point]",–
O=C(Cn1c(-c2cscn2)nc2ccccc21)Nc1ccc2ccccc2c1,"0.708 µM [falling, partial curve, poor fit]",–
CCOC(=O)C1CCN(C(=O)COC(=O)c2oc3ccc(OC)cc3c2C)CC1,"29.1 µM [rising, single point]",–
CCn1c(SCc2nc3ccccc3s2)nnc1-c1ccccc1,"5.8 µM [rising, full curve, poor fit]",–
CC(=O)N1N=C(c2ccc3ccccc3c2)OC12CCCC2,"31.6 µM [rising, single point]",–
